From patent publication US20240108662A1, “ENGINEERED CELLS FUNCTIONALIZED WITH IMMUNE CHECKPOINT MOLECULES AND USES THEREOF” (The University of North Carolina at Chapel Hill, priority 2020, published 2024)

B1: Q91YQ5 (protein, UniProt Q91YQ5 1-608, looked up)
chain: MESPVALLLLLLLCLGALAPTPGSASSEAPPLVNEDVKRTVDLSSHLAKVTAEVVLVHPGGGSTSRASSFVLALEPELESRLAHLGVQIKGEDEEDNNLEVRETKIKGKSGRFFTVKLPVALDPGSKISVVVETVYTHVLHPYPTQITQSEKQFVVFEGNHYFYSPYPTKTQTMRVKLASRNVESYTKLGNPSRSEDVLDYGPFKDIPAYSQDTFKVHYENNSPFLTITSMTRVIEVSHWGNIAVEENVDLKHTGAVLKGPFSRYDYQRQPDSGISSIRSFKTILPAAAQDVYYRDEIGNVSTSHLLILDDSVEMEIRPRFPLFGGWKTHYIVGYNLPSYEYLYNLGDQYALKMRFVDHVFDEQVIDSLTVKIILPEGAKNIQVDSPYDISRAPDELHYTYLDTFGRPVIVAYKKNLVEQHIQDIVVHYTFNKVLMLQEPLLVVAAFYILFFTVIIYVRLDFSITKDPAAEARMKVACITEQVLTLVNKRLGLYRHFDETVNRYKQSRDISTLNSGKKSLETEHKAVTSEIAVLQSRLKTEGSDLCDRVSEMQKLDAQVKELVLKSAVEAERLVAGKLKKDTYLENEKLSSGKRQELVTKIDHILDAL
modifications: full-length
B2: P35276 (protein, UniProt P35276 1-219, looked up)
chain: MASASEPPASPRDAADQNFDYMFKLLLIGNSSVGKTSFLFRYADDSFTPAFVSTVGIDFKVKTVYRHDKRIKLQIWDTAGQERYRTITTAYYRGAMGFLLMYDIANQESFTAVQDWATQIKTYSWDNAQVILVGNKCDLEDERVVPAEDGRRLADDLGFEFFEASAKENINVKQVFERLVDIICDKMNESLEPSSSPGSNGKGPALGDTPPPQPSSCSC
modifications: full-length
B3: CON__Q9D646;Q9D646 (protein, UniProt Q9D646 1-392, looked up)
Keratin, type I cuticular Ha4: MSCESCLPALSCRTSCSSRPCVPPSCHGCTLPGACNIPANVGNCNWFCEGSFNGNEKETMQFLNDRLASYMEKVRQLERENAELECRIQERNQQQDPLVCPAYQAYFRTIEELQQKILCAKSENARLVVQIDNAKLASDDFRTKYQTELSMRQLVEADINSLRRILDELTLCKSDLEAQVESLREELLCLKKNHEEEVNTLRCQLGDRLNVEVDAAPTVDLNRVLNETRCQYEALVETNRREVEEWFTTQSEELNKQVVSSSEQLQSCQAEIIELRRTVNALEIELQAQHCMRNSLENTLTESEARYSSQLSQVQCLITNVESQLGEIRADLERQNQEYQVLLDVRARLECEINTYRSLLESEDCNLPCNPCATTNASGSCCGPCGSSKRCC
B4: Q6ZWQ7 (protein, UniProt Q6ZWQ7 1-180, looked up)
chain: MNTVLSRANSLFAFSLSVMAALTFGCFITTAFKDRSVPVRLHVSRIMLKNVEDFTGPRERSDLGFITFDITADLENIFDWNVKQLFLYLSAEYSTKNNALNQVVLWDKIVLRGDNPKLLLKDMKTKYFFFDDGNGLKGNRNVTLTLSWNVVPNAGILPLVTGSGHVSVPFPDTYEITKSY
modifications: full-length
B5: Q9ERE2 (protein, UniProt Q9ERE2 1-481, looked up)
chain: MTCGSGFCGRAFSCASACGPRPGRCCISAAPYRGISCYRGLSGGFGSQSVCGAFRSGSCGRSFGYRSGGICGPSPPCITTVSVNESLLTPLNLEIDPNAQCVKHEEKEQIKCLNSKFAAFIDKVRFLEQQNKLLETKWQFYQNRKCCESNMEPLFEGYIEALRREAECVEADSGRLAAELNHAQESMEGYKKRYEEEVSLRATAENEFVALKKDVDCAYLRKSDLEANAEALTQETDFLRRMYDEETRILHSHISDTSIVVKMDNSRDLNMDCVVAEIKAQYDDIASRSRAEAESWYRTKCEEIKATVIRHGETLRRTREEINELNRMIQRLTAEIENAKCQNTKLEAAVTQSEQQGEAALADARCKLAELEGALQKAKQDMACLLKEYQEVMNSKLGLDVEITTYRRLLEGEEQRLCEGVGAVNVCVSSSRGGVVCGDLCVSGSRPVIGSACSAPCSGNLAVNTGLCAPCGSAVSCGRKC
modifications: full-length
B6: P62818 (protein, UniProt P62818 1-101, looked up)
chain: MTRPLEQAVAAIVCTFQEYAGRCGDKYKICQSELKELLQKELPTWTPSEFRECDYNKFMSVLDTNKDCEVDFGEYVRSLASLCLYCHEYFKECPPEPPCPQ
modifications: full-length
B7: Q3TCT4 (protein, UniProt Q3TCT4 1-606, looked up)
chain: MARISFSYLCPASWYFTVPTVSPFLRQRVAFLGLFFIPCVLLLLLIMDLRHWATSLPRDRQYERYLARVGDLEATNTEDPNLNYGLVVDCGSSGSRIFVYFWPRHNGNPHDLLDIKQMRDRNSQPVVKKIKPGISAMADTPEHASDYLRPLLSFAAAHVPVKKHRETPLYILCTAGMRLLPERQQLAILADLVKDLPLEFDFLFSQSQAEVISGKQEGVYAWIGINFVLGRFDHEDESDSDTSVDSAAGRRRTVGILDMGGASLQIAYEVPTSASDLPPKQEEAAKILLAEFNLGCDVQHTEHVYRVYVTTFLGFGGNFARQRYEDLVLNETLNKNRLLGQKTGLSPDNPFLDPCLPVGLTDMVKRNNQVLHFRGKGDWASCRTLLSPLLARSNTSQASLNGIYQSPIDFNNSEFYGFSEFFYCTEDVLRIGGHYHGPTFAKAAQDYCGMAWPVLAQRFKNGLFSSHADEHRLKYQCFKSAWMYEVLHEGFHFPYDYPNLQTAQLVYDREVQWTLGAILYKTRFLPLRDLRQGQGGVRPAHGSWLRLSFVYNHYLFFACTLVVLLAIVLYLLRIHRIHRRQTRASAPLDLLWIEQVVPMIGVQVGP
modifications: full-length
B8: P17892 (protein, UniProt P17892 1-482, looked up)
chain: MPMDVRGCLFPSVQMLLCWLVSLLLATVGGKEVCYGHLGCFSNDKPWAGMIQRPSKIFPWSPEDIDTRFLLYTNENPNNYQIISATDPATINASNFQLDRKTRFIIHGFIDKGEEGWLLDMCKKMFQVEKVNCICVDWKRGSRTEYTQASYNTRVVGAEIAFLVQVLSTEMGYSPENVHLIGHSLGSHVAGEAGRRLEGHVGRITGLDPAEPCFQGLPEEVRLDPSDAMFVDVIHTDSAPIIPYLGFGMSQKVGHLDFFPNGGKEMPGCQKNILSTIVDINGIWEGTRNFAACNHLRSYKYYASSILNPDGFLGYPCSSYEKFQHNDCFPCPEQGCPKMGHYADQFEGKTATVEQTFFLNTGDSGNFTRWRYKVSVTLSGAKKLSGYILVALYGCNGNSKQYEVFKGSLQPEARYIRDIDVDVNVGEIQKVKFLWNNKVINLFRPTMGASQITVQRGKDGKEFNFCSSNTVHEDVLQSLYPC
modifications: full-length
B9: Q9QYG0 (protein, UniProt Q9QYG0 1-371, looked up)
chain: MAELQEVQITEEKPLLPGQTPETAKEAELAARILLDQGQTHSVETPYGSVTFTVYGTPKPKRPAIFTYHDVGLNYKSCFQPLFRFGDMQEIIQNFVRVHVDAPGMEEGAPVFPLGYQYPSLDQLADMIPCILQYLNFSTIIGVGVGAGAYILSRYALNHPDTVEGLVLINIDPNAKGWMDWAAHKLTGLTSSIPDMILGHLFSQEELSGNSELIQKYRGIIQHAPNLENIELYWNSYNNRRDLNFERGGETTLKCPVMLVVGDQAPHEDAVVECNSKLDPTQTSFLKMADSGGQPQLTQPGKLTEAFKYFLQGMGYMASSCMTRLSRSRTASLTSAASIDGSRSRSRTLSQSSESGTLPSGPPGHTMEVSC
modifications: full-length

Experiment: Proteomic analysis of native murine pancreata and decelled pancreatic ECM (Table 1)
Design: species or system mouse
Conditions: for Pancreatic ECM: Mean of log2(intensities): abundance of the listed protein in decelled pancreatic ECM; for Native pancreas tissue: Mean of log2(intensities): abundance of the listed protein in native murine pancreas tissue; for Mean of log2(intensities), Pancreatic ECM: decelled pancreatic ECM (spin-decell protocol); for Mean of log2(intensities), Native pancreas tissue: native murine pancreas tissue

Molecule | Pancreatic ECM: Mean of log2(intensities) | Native pancreas tissue: Mean of log2(intensities) | Mean of log2(intensities), Pancreatic ECM | Mean of log2(intensities), Native pancreas tissue
B1 | 33.48 a.u. | 32.38 a.u. |  | 
B2 |  |  | 29.41 a.u. | 28.02 a.u.
B3 | 30.92 a.u. | 21.97 a.u. |  | 
B4 |  |  | 30.70 a.u. | 29.41 a.u.
B5 | 31.52 a.u. | 21.31 a.u. |  | 
B6 |  |  | 23.62 a.u. | 22.32 a.u.
B7 |  |  | 22.78 a.u. | 21.48 a.u.
B8 |  |  | 31.11 a.u. | 30.09 a.u.
B9 |  |  | 23.06 a.u. | 21.90 a.u.
